# From PubChem BioAssay AID1671190 (National Center for Advancing Translational Sciences (NCATS), 2021)
# Amino acid sequences for entries named in this document (tags omitted). A change or cut given only in a name is not applied to a line headed by its entry.
# UniProt P18054: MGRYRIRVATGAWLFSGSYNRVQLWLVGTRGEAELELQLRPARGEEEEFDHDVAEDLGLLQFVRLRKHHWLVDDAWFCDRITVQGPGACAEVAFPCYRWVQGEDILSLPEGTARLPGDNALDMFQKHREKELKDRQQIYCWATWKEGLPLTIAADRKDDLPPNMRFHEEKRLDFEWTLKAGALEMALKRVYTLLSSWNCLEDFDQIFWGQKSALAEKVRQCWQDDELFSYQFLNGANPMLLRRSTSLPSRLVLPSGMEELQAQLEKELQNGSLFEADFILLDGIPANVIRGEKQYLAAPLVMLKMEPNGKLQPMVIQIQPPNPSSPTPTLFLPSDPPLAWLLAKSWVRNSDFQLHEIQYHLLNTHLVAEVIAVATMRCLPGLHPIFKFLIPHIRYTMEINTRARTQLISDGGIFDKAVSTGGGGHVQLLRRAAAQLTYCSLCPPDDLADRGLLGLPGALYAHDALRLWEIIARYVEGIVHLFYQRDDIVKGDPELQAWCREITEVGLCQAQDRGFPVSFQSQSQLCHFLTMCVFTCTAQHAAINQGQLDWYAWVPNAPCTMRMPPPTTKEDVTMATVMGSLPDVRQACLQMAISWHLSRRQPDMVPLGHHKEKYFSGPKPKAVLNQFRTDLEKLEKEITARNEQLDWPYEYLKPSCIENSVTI
# In all, about 580,000 compounds went through this assay and about 6,100 (1.1%) were called active. This list was built around the results that the source calls inconclusive (neither active nor inactive); the mix of calls is not that of the screen. Calls come from the whole dose curve; as a rule, active = well fitted inhibition curve with a large enough effect; inconclusive = small, poorly fitted or top-dose-only effect, or another doubt; inactive = no such curve, though single readings can be large or run the other way. Potencies beside an inconclusive call are fits to weak or partial responses and may not hold up.
# Biological target: Polyunsaturated fatty acid lipoxygenase ALOX12 (Homo sapiens) (UniProt P18054)
# Experiment: Primary qHTS assay for inhibitors of human arachidonate 12S-lipoxygenase (ALOX12): Round 2
# Conditions: purified 12hLO, xylenol orange hydroperoxide absorbance; series mostly up to 108 µM
# Summary of the method: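 Hydroperoxide product was detected by ferrous iron/xylenol orange as the 573 to 405 nm absorbance ratio. Arachidonic acid at 40 uM (final) was turned over for 30 min at room temperature by 150 nM human 12hLO, pH 7.0 Hepes buffer, after 15 min compound preincubation.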
# Potency is the fitted concentration of half-maximal effect.
row,Compound,Potency
1,CC(C)(C)c1nc2ccc(NS(=O)(=O)c3ccc(F)c(F)c3F)cc2[nH]1,"inconclusive: 39.8 µM [inhibitor, partial curve, poor fit]"
2,COc1cc2cc(C(=O)N[C@@H](C)C(=O)Nc3ncc(C)s3)n(C)c2c(OC)c1OC,"inconclusive: 50.1 µM [inhibitor, partial curve, poor fit]"
3,O=C(CCN1CCC(c2ccc(Cl)s2)=N1)c1ccc(Cl)s1,"inconclusive: 35.5 µM [inhibitor, partial curve, poor fit]"
4,COc1cc(/C=C2/NC(=O)NC2=O)ccc1OCc1ccccc1F,inactive
5,COc1cc(C)cc2oc(=O)c(CC(=O)Nc3ccc4c(c3)OCO4)c(C)c12,inactive
6,COCC(=O)OCC(=O)c1cc(C)n(-c2ccc(Br)cc2)c1C,inactive
7,CCCCN1CN(Cc2ccccc2)CNC1=S,"inconclusive: 39.8 µM [inhibitor, partial curve]"
8,CCC(=O)Nc1cccc(C(=O)/C=C/c2cc(Br)ccc2OC)c1,inactive
9,Cc1ccc(NC(=O)Nc2ccccc2F)cc1S(=O)(=O)N1CCOCC1,inactive
10,CCOc1ccc(NS(=O)(=O)c2ccc(C(=O)N3CCC3)cc2)cc1,"inconclusive: 44.7 µM [inhibitor, single point]"
11,Cc1ccc(NC(=O)NC[C@H]2O[C@@H](CC(=O)NCCN(C)C)[C@H](O)[C@@H]2O)cc1,"inconclusive: 2.51 µM [inhibitor, full curve, poor fit]"
12,O=C(Nc1cccc(CO)c1)c1cn(Cc2ccccc2)nc1-c1ccc(Cl)cc1,inactive
13,O=[N+]([O-])c1ccc(N2CCCCC2)c(-c2nn[nH]n2)c1,inactive
14,O=C(Nc1ccccc1Cl)c1ccccc1-c1ccccc1,inactive
15,O=C(Nc1cccc(Cl)c1)c1cnccn1,"inconclusive: 44.7 µM [inhibitor, partial curve, poor fit]"
16,COc1ccc2c(c1)S/C(=C\C(=O)c1ccncc1)N2C,active: 44.7 µM
17,CN(CC(=O)Nc1cccc(F)c1)C(=O)c1cc([N+](=O)[O-])ccc1N1CCCCC1,"inconclusive: 39.8 µM [inhibitor, partial curve, poor fit]"
18,CN(Cc1ccc(-c2ccccc2)cc1)Cc1ccccc1Cl,inactive
19,CCOC(=O)C1=C(C)C(c2cccc(Oc3ccccc3)c2)NC(=S)N1 (configuration not stated),active: 39.8 µM
20,CN(C1=C(NC(=O)c2ccc(Cl)cc2)C(=O)c2ccccc2C1=O)c1ccccc1,inactive
21,Cc1ccc(C)c(N(C)S(=O)(=O)c2ccc3[nH]cc(C(=O)NC4CCCC4)c(=O)c3c2)c1,"inconclusive: 56.2 µM [inhibitor, partial curve, poor fit]"
22,CC(=O)N1CCCc2cc(S(=O)(=O)N3CCC(C(=O)N4CCC5(CC4)OCCO5)CC3)ccc21,inactive
23,CC(=O)Nc1cccc(OC(=O)C23CC4CC(CC(C4)C2)C3)c1,inactive
24,O=C(CSc1oc(-c2cccs2)nc1S(=O)(=O)c1ccc(F)cc1)NCC1CCCO1 (configuration not stated),"inconclusive: 28.2 µM [inhibitor, partial curve]"

# In the list so far, 2 have a nitro group on carbon:
row,Compound,Potency
13,O=[N+]([O-])c1ccc(N2CCCCC2)c(-c2nn[nH]n2)c1,inactive
17,CN(CC(=O)Nc1cccc(F)c1)C(=O)c1cc([N+](=O)[O-])ccc1N1CCCCC1,"inconclusive: 39.8 µM [inhibitor, partial curve, poor fit]"

# (list continues)

row,Compound,Potency
1,CCOc1ccccc1N=Cc1c(O)c2ccccc2oc1=O,"inconclusive: 158 µM [inhibitor, partial curve, poor fit]"
2,CCSC1=N/C(=C\c2cccc3ccccc23)C(=O)S1,"inconclusive: 0.0891 µM [inhibitor, full curve, poor fit]"
3,N#Cc1ccc(CN2CCC3(CC2)CCN(C(=O)c2csnn2)CC3)cc1,"inconclusive: 31.6 µM [inhibitor, single point]"
4,CN1CCN(C2Cc3ccccc3Sc3cc(C(F)(F)F)ccc32)CC1 (configuration not stated),"inconclusive: 79.4 µM [inhibitor, partial curve, poor fit]"
5,Cc1oc(-c2ccc(Cl)cc2)cc1-c1nn2c(-c3ccoc3C)nnc2s1,"inconclusive: 50.1 µM [inhibitor, partial curve, poor fit]"
6,Cc1cc(C)n2ncc(-c3noc(C(=O)NCCO)n3)c2n1,inactive
7,c1cncc(-c2nc(-c3cccs3)cs2)c1,"inconclusive: 35.5 µM [inhibitor, full curve, poor fit]"
8,CCOCCCNC(=O)/C(C#N)=C\c1ccc(NC(C)=O)cc1,inactive
9,CCOCCCNCC(=O)NCC1CCCCC1,"inconclusive: 1 µM [inhibitor, full curve]"
10,COC(=O)N/N=C/c1ccc([N+](=O)[O-])s1,inactive
11,C[C@H]1CN([C@@H](C)CO)C(=O)CCCn2nncc2CO[C@@H]1CN(C)Cc1cccc(C(F)(F)F)c1,inactive
12,CC/C=C(/C)C(=O)NCc1ccc(C(=O)NC(C)CC)cc1 (configuration not stated),inactive
13,Cc1[nH][nH]c(=O)c1C(c1ccc(-c2ccc(C(=O)O)cc2)o1)c1c(C)[nH][nH]c1=O,inactive
14,CC(C)(C)NC(=O)c1cccc(NC(=O)c2cccnc2)c1,"inconclusive: 35.5 µM [inhibitor, partial curve, poor fit]"
15,Cc1c(C(=O)O)sc(S(=O)(=O)N2CCN(C(=O)CC(C)c3ccccc3)CC2)c1C(=O)O (configuration not stated),"inconclusive: 44.7 µM [inhibitor, partial curve, poor fit]"
16,CCCCOC(=O)C1=C(C)NC(=O)NC1c1cccc([N+](=O)[O-])c1 (configuration not stated),inactive
17,COc1ccc(/C=C2\SC(=S)N(CCC(=O)N(CCO)Cc3ccccc3)C2=O)cc1OC,"inconclusive: 39.8 µM [inhibitor, single point]"
18,CC[C@@]1(C(=O)OC)N[C@H](CN(C)C(=O)COc2ccccc2)[C@@H]2C(=O)N(C)C(=O)[C@@H]21,"inconclusive: 44.7 µM [inhibitor, partial curve, poor fit]"
19,CC(C)Cn1nc(C(=O)N2CCc3ccccc32)c2ccccc2c1=O,inactive
20,CC12CCC(C(=O)N(CCCCN3CCN(Cc4ccccc4)CC3)C1=O)C2(C)C (configuration not stated),"inconclusive: 39.8 µM [inhibitor, single point]"
21,Cc1cc(C(=O)N2CCCC(Nc3ccc(C)c(C)c3)C2)nc(C)n1 (configuration not stated),inactive
22,CC(C)OCCCNC(=O)c1cc2cn(C(C)C)cc2s1,inactive
23,OCCN(CC#CCC(O)(c1ccccc1)c1ccccc1)Cc1ccccc1,"inconclusive: 35.5 µM [inhibitor, partial curve, poor fit]"
